From patent publication US20050124626A1, “Novel compounds” (priority 2002, published 2005)
Some results were stated once for a whole list of compounds, not compound by compound.

Chains of the proteins cited; added tags and fusions are not shown.
UniProt P50406, whole entry: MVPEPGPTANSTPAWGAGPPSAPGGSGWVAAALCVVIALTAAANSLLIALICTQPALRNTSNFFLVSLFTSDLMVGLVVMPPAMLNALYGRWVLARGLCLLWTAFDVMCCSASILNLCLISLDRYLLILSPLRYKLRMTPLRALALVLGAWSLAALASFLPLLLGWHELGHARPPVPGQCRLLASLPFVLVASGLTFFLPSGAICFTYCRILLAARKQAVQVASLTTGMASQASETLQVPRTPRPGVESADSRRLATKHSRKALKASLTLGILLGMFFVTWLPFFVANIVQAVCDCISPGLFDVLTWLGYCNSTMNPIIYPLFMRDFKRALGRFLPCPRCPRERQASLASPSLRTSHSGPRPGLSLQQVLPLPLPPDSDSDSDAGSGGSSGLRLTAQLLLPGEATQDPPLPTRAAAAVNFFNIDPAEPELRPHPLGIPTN

Each compound was assayed against T1, human cloned 5-HT6 receptors (Homo sapiens, UniProt P50406) (assay: 5-HT6 receptor affinity following the procedures outlined in WO98/27081).
T1 construct: expressed in transfected cells
Type: binding
Text: Compounds can be tested following the procedures outlined in WO98/27081.

pKi values at human cloned 5-HT6 receptors, > 7.0:
Cl.O=S(=O)(c1ccccc1)c1c[nH]c2c(N3CCNCC3)ccnc12 [Example E1, 4-(3-Phenylsulfonyl-1H-pyrrolo[3,2-b]pyridin-7-yl)-piperazine hydrochloride]
Cn1ccc(N2CCNCC2)c2ncc(S(=O)(=O)c3ccccc3)c1-2 [Example E2, 4-Methyl-7-piperazin-1-yl-3-phenylsulfonyl-4H-pyrrolo[3,2-b]pyridine]
Cn1cc(S(=O)(=O)c2ccccc2)c2nccc(N3CCNCC3)c21 [Example E3, 1-Methyl-7-piperazin-1-yl-3-phenylsulfonyl-1H-pyrrolo[3,2-b]pyridine]
Cn1cc(S(=O)(=O)c2ccccc2F)c2nccc(N3CCNCC3)c21 [Example E4, 1-Methyl-7-piperazin-1-yl-3-(2-fluorophenyl)sulfonyl-1H-pyrrolo[3,2-b]pyridine]
Cn1ccc(N2CCNCC2)c2ncc(S(=O)(=O)c3ccccc3F)c1-2 [Example E5, 4-Methyl-7-piperazin-1-yl-3-(2-fluorophenyl)sulfonyl-4H-pyrrolo[3,2-b]pyridine]
Cl.O=S(=O)(c1ccccc1)c1c[nH]c2c(N3CCNCC3)nccc12 [Example E6, 7-piperazin-1-yl-3-phenylsulfonyl-1H-pyrrolo[2,3-c]pyridine hydrochloride]
Cl.O=S(=O)(c1ccccc1F)c1c[nH]c2c(N3CCNCC3)nccc12 [Example E7, 3-(2-Fluorophenyl)sulfonyl-7-piperazin-1-yl-1H-pyrrolo[2,3-c]pyridine hydrochloride]
Cl.O=S(=O)(c1cccc(F)c1)c1c[nH]c2c(N3CCNCC3)nccc12 [Example E8, 3-(3-Fluorophenyl)sulfonyl-7-piperazin-1-yl-1H-pyrrolo[2,3-c]pyridine hydrochloride]
Cc1cc(N2CCNCC2)c2ccc(S(=O)(=O)c3ccccc3)cc2n1.Cl [Example E9, 2-Methyl-4-piperazin-1-yl-7-phenylsulfonylquinoline hydrochloride]
O=S(=O)(c1ccccc1)c1ccnc2c(N3CCNCC3)cccc12 [Example E10, 4-Phenylsulfonyl-8-piperazin-1-yl quinoline]
Cl.O=S(=O)(c1ccccc1)c1ccnc2c(N3CCNCC3)cccc12 [Example E11, 4-Phenylsulfonyl-8-piperazin-1-yl-quinoline hydrochloride]
Cc1cc(S(=O)(=O)c2ccccc2)c2cccc(N3CCNCC3)c2n1 [Example E12, 2-Methyl-4-phenylsulfonyl-8-piperazin-1-yl-quinoline]
Cc1cc(S(=O)(=O)c2ccccc2)c2cccc(N3CCNCC3)c2n1.Cl [Example E13, 2-Methyl-4-phenylsulfonyl-8-piperazin-1-ylquinoline hydrochloride]
Cc1cc(S(=O)(=O)c2ccccc2F)c2cccc(N3CCNCC3)c2n1 [Example E14]
Cc1cc(S(=O)(=O)c2cccc(F)c2)c2cccc(N3CCNCC3)c2n1 [Example E15]
Cc1cc(S(=O)(=O)c2cccc(Cl)c2)c2cccc(N3CCNCC3)c2n1 [Example E16]
